Target: SLC35G3 (Homo sapiens, UniProt Q8N808)
Experiment: Uptake ratio screen, SLC35G3-overexpressing HEK293 over empty vector cells
Format: cell-based
Set-up: by amplifying the entire gene-of-interest within the HEK293 genome via a long-range PCR
Settings: 2.5 μM substrate, 2 min

Sequences of proteins named here, by UniProt entry; tags and fusion partners are left off. A change or cut given only in a name is not applied to a line headed by its entry.
UniProt Q8N808: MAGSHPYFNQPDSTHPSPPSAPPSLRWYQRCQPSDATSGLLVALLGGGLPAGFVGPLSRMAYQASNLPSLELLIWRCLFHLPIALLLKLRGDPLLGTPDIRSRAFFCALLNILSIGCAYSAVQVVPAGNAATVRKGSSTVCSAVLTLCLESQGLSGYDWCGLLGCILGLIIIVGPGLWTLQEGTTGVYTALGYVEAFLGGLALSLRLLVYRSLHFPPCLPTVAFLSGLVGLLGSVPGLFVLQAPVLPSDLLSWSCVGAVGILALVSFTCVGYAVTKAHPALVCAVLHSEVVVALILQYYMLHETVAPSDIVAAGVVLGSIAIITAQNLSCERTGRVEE

Uptake data for SLC35G3, mean value (fold-increase over empty vector control): 1.22
SMILES: CN1CCC[C@@H]1CCO[C@](C)(c1ccccc1)c1ccc(Cl)cc1 [Clemastine]

From article PMC11406361, “Several orphan solute carriers functionally identified as organic cation transporters: Substrates specificity compared with known cation transporters” (The Journal of Biological Chemistry, 2024)
